Some results were stated once for a whole list of compounds, not compound by compound. At least one compound was matched to its structure with a doubt left.
Key:
[1] = system: cucumber grey mold (Botrytis cinerea); assay: Cucumber grey mold controlling effect test (preventive effect); format: in vivo; conditions: cucumber (Sagamihanpaku), flowable preparation diluted to 500 ppm, foliage spray before inoculation, 12° C. under high humidity for 5 days
[2] = system: wheat scab (Fusarium culmorum); assay: Wheat scab (Fusarium culmorum) controlling effect test (preventive effect); format: in vivo; conditions: wheat (Shirogane komugi), flowable preparation diluted to 500 ppm, foliage spray before spore inoculation, 23° C. high humidity 4 days then 23° C. greenhouse 3 days

SMILES | area of lesion in a treated plant relative to area of a lesion in a non-treated plant [1] [%] | area of a lesion in a treated plant relative to area of a lesion in a non-treated plant [2] [%]
Cc1cnc(NC(=O)c2c(O)cc(C)n(C)c2=O)s1 [compound 20] | ≤ 10 | 
Cc1nnc(NC(=O)c2c(O)cc(C)n(C)c2=O)s1 [compound 12] |  | ≤ 10
Cc1csc(NC(=O)c2c(O)c(F)c(C)n(C)c2=O)n1 [compound 31] | ≤ 10 | 
Cc1cc(NC(=O)c2c(O)cc(C)n(C)c2=O)no1 [compound 27] | ≤ 10 | 

Source: US8304437B2, “Carboxamide compound and use of the same” (Sumitomo Chemical Company, Limited, priority 2005, dated 2012)
